{"source": "ChEMBL document CHEMBL3045324", "about": "“5-phenyl-1-benzofuran-2-yl derivatives: synthesis, antimicrobial, and antioxidant activity” (2013)", "test_system": "Candida albicans", "assay": "Antifungal activity against Candida albicans NCPF 3179 assessed as growth inhibition at 50 mg/mL after 3 days", "assay_type": "functional", "data": [{"sequence": "NYSTATIN", "values": [{"measurement": "inhibition zone (IZ)", "value": 6, "unit": "mm"}]}]}
